Test results published in PMC7892874.
No constants are given. Whether binding was seen depends on the method and setting. Binding seen in cells or lysates may run through a third protein. Some entries that bind do so weakly or less than the wild type. Where a sequence is shown, tags or fusion partners need not be part of it.

T1: FLAG-tagged Samd11 (mouse) (UniProt Q1RNF8)
T1 sequence: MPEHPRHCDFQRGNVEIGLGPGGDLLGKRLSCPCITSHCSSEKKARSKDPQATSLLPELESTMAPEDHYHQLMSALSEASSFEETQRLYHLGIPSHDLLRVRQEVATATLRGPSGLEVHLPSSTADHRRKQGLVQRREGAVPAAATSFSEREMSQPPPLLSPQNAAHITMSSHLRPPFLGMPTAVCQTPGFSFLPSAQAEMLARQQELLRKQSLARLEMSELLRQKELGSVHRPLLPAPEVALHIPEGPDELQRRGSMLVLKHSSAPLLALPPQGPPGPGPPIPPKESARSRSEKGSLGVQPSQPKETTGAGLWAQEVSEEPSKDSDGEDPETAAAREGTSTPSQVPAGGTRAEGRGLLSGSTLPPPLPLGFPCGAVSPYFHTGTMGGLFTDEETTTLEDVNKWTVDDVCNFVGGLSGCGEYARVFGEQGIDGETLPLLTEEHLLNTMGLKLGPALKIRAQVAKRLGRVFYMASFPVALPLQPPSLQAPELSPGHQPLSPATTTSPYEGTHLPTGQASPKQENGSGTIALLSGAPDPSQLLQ


target: T1, FLAG-tagged Samd11 (mouse); experiment: co-IP; HEK293 cells co-transfected with FLAG-Samd11 and an HA-tagged partner for 48 h; lysate in IP250 buffer (20 mM HEPES, 10% glycerol, 250 mM NaCl, 0.2 mM EDTA, 1 mM DTT), sonicated; anti-FLAG M2 affinity gel overnight at 4 C; eluted with FLAG peptide; western blot

| binding | Binder |
| --- | --- |
| binds | HA-tagged Samd7 (protein, UniProt Q8C8Y5 1-445) MTNPMMSVSSLLTSGQQKVPMVPSPFGPPIVDRDVLSSSIAPTDPSQFCVPSQFGSSGLPNANMPNPLSSHFYSGWGILPPEPIKAVTTRNEMFERHHAARAEMEMYSLYQQRRMERVNPKGLSGLGIPLFYGSSCLGGPTGFQGRSTLPASDVHLHRSTFRHLQGNPILLATRPHFTECWGQKYRLRRGAVYQKPPESDTESFKSQAEEKSSSQMPTLSYEEEEYIKDPDIEVDNQQKPRVADGKPTTVPANPHGELHTHQRKPSSLEANAWDDGKGKPSEQVYEGCDGKNGVFRPVSILPLSGTHEQVALRENCSLSDIQKWTVDDVYNFIRSLPGCSDYAQVFKDHAIDGETLPLLTEQHLRGTMGLKLGPALKIQSQVSQHVGNMFCKKLPSLPTHARQAFDQPADTSPLLDMSSWSDGLSIPGPQDLLSPKRTEQDVMRN |
| binds | HA-tagged Phc2 (protein, UniProt Q9QWH1 1-850) MENELPVPHTSNRASVTTNTSGTNSSSGCISSSGGGGGSGGRPTAPQISVYSGIPDRQTVQVIQQALHRQPSTAAQYLQQMYAAQQQHLMLQTAALQQQHLSSAQLQSLAAVQQASLVANRQGSTPGSSVSSQAPAQSSSLNLAASPAAAQLINRAQSVNSAAASGLAQQAVLLGNTSSPALTASQAQMYLRAQMLIFTPTATVATVQPELCTGSPARPPTPAQVQNLTLRTQQTPAAAASGPPPTQPVLPSLALKPTPSSSQPLPAPPQGRTMAQGSPAGAKPSGTDNAPETLKAGDGNCNMEGRPGPGRAVPAVATHPLIAPAYAHLQSHQLLPQPPAKHPQPQFVAQQQPQPPRPAPQVQSQPQLASVSPSLALQSSPEDHALPLGSVTQALPLQCSTTHVHKPGNSQQCHLPTLDTGSQNGHPEGGSHPPQRRFQHTSAVILQVQPASPVTPQQCAPDDWKEVVPAEKSVPVARPGPSPHQQAIIPAIPGGLPGPKSPNIQQCPAHETGQGIVHALTDLSSPGMTSGNGNSASSIAGTAPQNGENKPPQAIVKPQILTHVIEGFVIQEGAEPFPVGRSSLLVGNLKKKYAQGFLPEKPPQQDHTTTTDSEMEEPYLQESKEEGTPLKLKCELCGRVDFAYKFKRSKRFCSMACAKRYNVGCTKRVGLFHSDRSKLQKAGTTTHNRRRASKASLPTLTKDTKKQPSGTVPLSVTAALQLAHSQEDSSRCSDNSSYEEPLSPISASSSTSRRRQGQRDLDLPDMHMRDLVGVGHHFLPSEPTKWNVEDVYEFIRSLPGCQEIAEEFRAQEIDGQALLLLKEDHLMSAMNIKLGPALKIYARISMLKDS |
| binds | FLAG-tagged Samd11 (protein, UniProt Q1RNF8 1-542) MPEHPRHCDFQRGNVEIGLGPGGDLLGKRLSCPCITSHCSSEKKARSKDPQATSLLPELESTMAPEDHYHQLMSALSEASSFEETQRLYHLGIPSHDLLRVRQEVATATLRGPSGLEVHLPSSTADHRRKQGLVQRREGAVPAAATSFSEREMSQPPPLLSPQNAAHITMSSHLRPPFLGMPTAVCQTPGFSFLPSAQAEMLARQQELLRKQSLARLEMSELLRQKELGSVHRPLLPAPEVALHIPEGPDELQRRGSMLVLKHSSAPLLALPPQGPPGPGPPIPPKESARSRSEKGSLGVQPSQPKETTGAGLWAQEVSEEPSKDSDGEDPETAAAREGTSTPSQVPAGGTRAEGRGLLSGSTLPPPLPLGFPCGAVSPYFHTGTMGGLFTDEETTTLEDVNKWTVDDVCNFVGGLSGCGEYARVFGEQGIDGETLPLLTEEHLLNTMGLKLGPALKIRAQVAKRLGRVFYMASFPVALPLQPPSLQAPELSPGHQPLSPATTTSPYEGTHLPTGQASPKQENGSGTIALLSGAPDPSQLLQ |
